From the supplement of paper PMC10849652
The list shows a part of the results.

The chains behind the UniProt entries cited, without tags or fusion partners. Where a name states a change or a piece, a line headed by the entry shows the natural chain unless it says otherwise.
UniProt O75496: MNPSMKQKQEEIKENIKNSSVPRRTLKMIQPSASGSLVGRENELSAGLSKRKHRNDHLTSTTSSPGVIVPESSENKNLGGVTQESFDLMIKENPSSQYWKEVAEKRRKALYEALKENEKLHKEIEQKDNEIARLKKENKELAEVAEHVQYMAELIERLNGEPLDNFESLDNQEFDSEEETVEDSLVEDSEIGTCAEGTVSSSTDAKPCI
UniProt Q9BRX5: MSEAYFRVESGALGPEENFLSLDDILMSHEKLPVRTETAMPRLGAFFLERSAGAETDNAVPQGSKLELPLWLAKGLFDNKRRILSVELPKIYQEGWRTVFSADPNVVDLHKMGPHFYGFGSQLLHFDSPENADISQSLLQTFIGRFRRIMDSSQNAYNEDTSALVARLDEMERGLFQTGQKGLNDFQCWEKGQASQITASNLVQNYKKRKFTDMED
UniProt Q53EU6: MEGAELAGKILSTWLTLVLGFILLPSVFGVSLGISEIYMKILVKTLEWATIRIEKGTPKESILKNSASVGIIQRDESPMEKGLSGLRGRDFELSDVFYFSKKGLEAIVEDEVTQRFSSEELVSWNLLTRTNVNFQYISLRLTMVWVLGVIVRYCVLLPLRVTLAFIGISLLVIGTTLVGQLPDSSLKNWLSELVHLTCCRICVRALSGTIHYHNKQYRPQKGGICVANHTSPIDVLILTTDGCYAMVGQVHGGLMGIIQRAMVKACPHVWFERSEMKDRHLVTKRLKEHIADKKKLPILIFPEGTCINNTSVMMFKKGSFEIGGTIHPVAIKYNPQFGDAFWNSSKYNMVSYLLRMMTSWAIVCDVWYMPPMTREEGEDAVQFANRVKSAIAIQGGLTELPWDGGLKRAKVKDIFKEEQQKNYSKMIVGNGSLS
UniProt Q8TDQ7: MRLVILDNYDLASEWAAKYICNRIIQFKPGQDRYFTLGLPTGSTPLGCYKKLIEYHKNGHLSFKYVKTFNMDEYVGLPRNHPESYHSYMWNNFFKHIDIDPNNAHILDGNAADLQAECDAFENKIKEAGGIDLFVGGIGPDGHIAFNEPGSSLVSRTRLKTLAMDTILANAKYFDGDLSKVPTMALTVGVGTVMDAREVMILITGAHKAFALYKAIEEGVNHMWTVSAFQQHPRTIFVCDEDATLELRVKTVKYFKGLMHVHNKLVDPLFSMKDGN
UniProt Q86SX6: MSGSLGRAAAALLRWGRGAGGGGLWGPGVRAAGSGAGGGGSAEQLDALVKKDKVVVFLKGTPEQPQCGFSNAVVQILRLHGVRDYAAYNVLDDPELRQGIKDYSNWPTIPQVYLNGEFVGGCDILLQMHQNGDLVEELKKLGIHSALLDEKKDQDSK
UniProt A6NDN3: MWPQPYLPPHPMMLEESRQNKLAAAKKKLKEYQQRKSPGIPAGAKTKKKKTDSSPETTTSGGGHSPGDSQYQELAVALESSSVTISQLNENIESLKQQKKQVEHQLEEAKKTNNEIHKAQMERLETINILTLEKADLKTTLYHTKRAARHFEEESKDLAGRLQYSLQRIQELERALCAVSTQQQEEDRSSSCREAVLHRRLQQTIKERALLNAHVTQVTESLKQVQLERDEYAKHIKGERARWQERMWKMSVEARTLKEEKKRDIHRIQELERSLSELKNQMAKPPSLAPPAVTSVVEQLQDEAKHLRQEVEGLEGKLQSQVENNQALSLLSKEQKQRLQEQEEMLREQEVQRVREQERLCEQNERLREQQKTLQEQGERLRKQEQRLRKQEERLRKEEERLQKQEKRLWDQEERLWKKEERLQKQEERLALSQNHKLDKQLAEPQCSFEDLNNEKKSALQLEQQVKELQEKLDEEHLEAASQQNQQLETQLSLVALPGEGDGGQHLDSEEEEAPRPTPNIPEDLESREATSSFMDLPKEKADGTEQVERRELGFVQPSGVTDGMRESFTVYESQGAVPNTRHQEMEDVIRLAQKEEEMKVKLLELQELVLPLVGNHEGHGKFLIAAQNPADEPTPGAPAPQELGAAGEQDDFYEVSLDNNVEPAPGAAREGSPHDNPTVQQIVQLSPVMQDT
UniProt P17900: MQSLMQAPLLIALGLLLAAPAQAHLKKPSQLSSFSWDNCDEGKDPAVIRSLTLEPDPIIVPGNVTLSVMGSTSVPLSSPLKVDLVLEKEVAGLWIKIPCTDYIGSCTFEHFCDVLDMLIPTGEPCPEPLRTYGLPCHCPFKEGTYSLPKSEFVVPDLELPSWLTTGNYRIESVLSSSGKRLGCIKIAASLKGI
UniProt O14653: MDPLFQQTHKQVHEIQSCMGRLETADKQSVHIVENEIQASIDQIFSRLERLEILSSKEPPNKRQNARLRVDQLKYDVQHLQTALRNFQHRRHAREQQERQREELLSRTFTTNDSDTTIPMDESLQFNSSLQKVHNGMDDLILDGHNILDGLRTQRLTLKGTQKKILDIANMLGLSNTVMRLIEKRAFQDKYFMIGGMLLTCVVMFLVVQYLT
UniProt Q8IXQ4: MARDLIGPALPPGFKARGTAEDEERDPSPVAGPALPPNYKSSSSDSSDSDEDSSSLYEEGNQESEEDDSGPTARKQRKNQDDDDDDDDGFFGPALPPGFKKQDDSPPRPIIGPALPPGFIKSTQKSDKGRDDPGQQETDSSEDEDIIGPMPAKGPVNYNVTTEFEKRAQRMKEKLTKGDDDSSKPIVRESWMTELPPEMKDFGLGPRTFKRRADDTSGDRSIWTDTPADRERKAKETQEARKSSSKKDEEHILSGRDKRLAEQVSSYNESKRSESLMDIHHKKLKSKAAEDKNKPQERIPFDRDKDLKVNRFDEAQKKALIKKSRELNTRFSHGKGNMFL
UniProt Q5VW38: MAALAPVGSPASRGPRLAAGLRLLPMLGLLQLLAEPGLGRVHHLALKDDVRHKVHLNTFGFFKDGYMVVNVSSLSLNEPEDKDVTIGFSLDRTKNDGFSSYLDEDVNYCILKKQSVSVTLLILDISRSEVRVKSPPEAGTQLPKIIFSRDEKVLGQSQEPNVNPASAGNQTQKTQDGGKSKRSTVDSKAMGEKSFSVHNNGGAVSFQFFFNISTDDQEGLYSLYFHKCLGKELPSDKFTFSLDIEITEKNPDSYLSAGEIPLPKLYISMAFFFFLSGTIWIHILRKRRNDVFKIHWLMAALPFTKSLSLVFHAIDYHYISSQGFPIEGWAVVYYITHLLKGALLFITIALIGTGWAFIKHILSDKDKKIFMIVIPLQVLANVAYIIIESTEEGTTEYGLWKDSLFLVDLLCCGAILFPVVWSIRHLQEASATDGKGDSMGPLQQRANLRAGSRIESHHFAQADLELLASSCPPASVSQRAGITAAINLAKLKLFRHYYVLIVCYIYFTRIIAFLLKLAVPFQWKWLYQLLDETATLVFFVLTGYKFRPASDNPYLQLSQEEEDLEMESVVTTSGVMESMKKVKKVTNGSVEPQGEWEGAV
UniProt Q08378: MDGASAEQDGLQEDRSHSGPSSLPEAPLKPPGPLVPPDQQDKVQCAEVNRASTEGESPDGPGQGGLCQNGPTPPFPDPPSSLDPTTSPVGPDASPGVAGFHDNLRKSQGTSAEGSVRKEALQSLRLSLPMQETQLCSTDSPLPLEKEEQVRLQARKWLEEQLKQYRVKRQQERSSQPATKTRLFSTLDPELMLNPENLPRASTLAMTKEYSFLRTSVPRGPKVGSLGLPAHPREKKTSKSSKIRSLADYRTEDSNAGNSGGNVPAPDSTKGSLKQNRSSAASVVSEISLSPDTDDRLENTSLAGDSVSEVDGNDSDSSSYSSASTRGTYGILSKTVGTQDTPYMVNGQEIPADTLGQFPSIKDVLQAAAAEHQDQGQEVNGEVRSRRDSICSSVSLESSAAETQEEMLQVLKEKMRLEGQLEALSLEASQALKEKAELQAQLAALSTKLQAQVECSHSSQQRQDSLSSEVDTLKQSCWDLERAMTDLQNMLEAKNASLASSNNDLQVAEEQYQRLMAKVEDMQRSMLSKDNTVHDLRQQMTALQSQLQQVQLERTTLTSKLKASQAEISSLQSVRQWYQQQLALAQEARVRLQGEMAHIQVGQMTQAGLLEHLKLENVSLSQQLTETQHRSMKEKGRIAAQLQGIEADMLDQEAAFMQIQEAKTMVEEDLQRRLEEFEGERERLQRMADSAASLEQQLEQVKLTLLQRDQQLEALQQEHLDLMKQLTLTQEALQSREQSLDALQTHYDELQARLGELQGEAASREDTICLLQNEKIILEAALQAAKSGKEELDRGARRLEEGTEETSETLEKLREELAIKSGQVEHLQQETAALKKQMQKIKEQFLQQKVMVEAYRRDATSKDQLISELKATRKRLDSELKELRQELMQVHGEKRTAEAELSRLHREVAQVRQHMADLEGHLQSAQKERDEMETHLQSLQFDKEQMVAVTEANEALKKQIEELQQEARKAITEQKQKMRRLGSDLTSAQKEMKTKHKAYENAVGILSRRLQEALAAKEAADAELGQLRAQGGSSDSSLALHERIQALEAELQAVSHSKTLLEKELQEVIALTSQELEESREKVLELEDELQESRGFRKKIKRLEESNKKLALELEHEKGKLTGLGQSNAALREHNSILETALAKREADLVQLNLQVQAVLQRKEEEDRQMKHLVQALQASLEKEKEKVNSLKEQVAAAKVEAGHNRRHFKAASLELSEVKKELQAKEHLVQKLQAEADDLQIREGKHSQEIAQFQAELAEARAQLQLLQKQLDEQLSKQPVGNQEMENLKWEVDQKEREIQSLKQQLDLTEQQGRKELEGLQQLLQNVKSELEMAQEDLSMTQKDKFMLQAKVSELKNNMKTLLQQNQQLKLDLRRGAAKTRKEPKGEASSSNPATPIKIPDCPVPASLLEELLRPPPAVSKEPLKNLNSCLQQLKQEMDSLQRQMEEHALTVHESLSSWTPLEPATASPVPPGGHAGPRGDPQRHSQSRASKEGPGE
UniProt Q9Y3E0: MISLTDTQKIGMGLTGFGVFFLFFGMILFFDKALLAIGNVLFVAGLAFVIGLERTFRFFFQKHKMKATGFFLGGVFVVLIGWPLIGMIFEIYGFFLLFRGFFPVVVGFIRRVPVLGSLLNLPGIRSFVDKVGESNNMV
UniProt P08754, whole entry, looked up: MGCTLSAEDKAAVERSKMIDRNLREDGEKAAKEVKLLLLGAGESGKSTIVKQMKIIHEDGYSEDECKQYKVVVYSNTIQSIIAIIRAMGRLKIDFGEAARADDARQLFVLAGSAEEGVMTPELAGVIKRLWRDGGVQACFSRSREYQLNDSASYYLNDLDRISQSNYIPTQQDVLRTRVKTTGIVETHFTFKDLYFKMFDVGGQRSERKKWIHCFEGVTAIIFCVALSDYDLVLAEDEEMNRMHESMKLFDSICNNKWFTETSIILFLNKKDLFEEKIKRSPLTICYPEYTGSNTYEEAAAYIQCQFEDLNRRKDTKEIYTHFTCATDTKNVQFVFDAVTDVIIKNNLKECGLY
UniProt Q9NPR9: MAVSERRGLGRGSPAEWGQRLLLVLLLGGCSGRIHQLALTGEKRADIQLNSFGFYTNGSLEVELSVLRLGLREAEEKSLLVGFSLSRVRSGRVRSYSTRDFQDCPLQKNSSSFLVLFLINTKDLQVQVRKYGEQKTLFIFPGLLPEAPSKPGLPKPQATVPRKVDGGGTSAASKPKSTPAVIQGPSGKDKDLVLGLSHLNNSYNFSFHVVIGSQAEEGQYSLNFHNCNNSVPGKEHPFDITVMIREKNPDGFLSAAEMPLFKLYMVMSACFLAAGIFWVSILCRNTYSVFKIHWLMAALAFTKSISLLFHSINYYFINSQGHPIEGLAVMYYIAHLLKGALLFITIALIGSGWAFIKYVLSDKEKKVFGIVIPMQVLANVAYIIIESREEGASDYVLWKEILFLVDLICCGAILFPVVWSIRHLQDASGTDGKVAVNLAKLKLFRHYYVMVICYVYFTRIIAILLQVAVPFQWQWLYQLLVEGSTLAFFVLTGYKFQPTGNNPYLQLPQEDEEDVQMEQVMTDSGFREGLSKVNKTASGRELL
UniProt Q8TBA6: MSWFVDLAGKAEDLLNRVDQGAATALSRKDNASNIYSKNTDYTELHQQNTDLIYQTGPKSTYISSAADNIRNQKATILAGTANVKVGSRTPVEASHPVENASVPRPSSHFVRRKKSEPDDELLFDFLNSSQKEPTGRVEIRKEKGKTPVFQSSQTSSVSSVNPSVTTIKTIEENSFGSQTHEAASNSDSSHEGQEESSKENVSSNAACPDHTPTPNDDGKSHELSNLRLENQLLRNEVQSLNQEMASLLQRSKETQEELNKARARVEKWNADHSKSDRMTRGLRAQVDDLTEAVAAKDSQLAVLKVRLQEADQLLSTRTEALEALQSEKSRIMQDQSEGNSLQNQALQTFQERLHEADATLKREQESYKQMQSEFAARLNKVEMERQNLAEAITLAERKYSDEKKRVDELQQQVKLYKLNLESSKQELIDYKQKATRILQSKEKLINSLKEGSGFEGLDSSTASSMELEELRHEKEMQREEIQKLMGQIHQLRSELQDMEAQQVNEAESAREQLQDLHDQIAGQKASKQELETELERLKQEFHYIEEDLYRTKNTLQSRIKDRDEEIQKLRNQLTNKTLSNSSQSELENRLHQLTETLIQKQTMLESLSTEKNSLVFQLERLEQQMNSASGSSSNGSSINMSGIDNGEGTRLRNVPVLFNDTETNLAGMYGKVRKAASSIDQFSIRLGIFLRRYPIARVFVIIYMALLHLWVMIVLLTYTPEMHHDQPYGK

Tests used:
Assay in all cases: log2 fold change, soluble protein after heating vs DMSO (PISA); higher = thermal stabilisation; K562 lysate, 10 uM; active = over 0.2 and 3.5 SD of the protein, either way, in both replicates (recomputed)
lapatinib = compound: CS(=O)(=O)CCNCc1ccc(-c2ccc3ncnc(Nc4ccc(OCc5cccc(F)c5)c(Cl)c4)c3c2)o1 [lapatinib]
Outline: (§1)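 Soluble protein was defined as the supernatant remaining after 21,000xg for 90 min, following pooling of heated aliquots and adjustment to 0.5% NP-40 at 4°C. Before that, crude K562 extract at 1 mg/mL protein in PBS pH 7.4 with 1 mM MgCl2 was treated with 10 μM compound for 30 min and heated for 3 min across 48°C-58°C. Quantification used TMTpro 16plex LC-MS/MS with channel sums equalised, and values are log-two fold changes in thermal stability relative to solvent controls from duplicates.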

pictilisib = compound: CS(=O)(=O)N1CCN(Cc2cc3nc(-c4cccc5[nH]ncc45)nc(N4CCOCC4)c3s2)CC1 [pictilisib]
Outline: as §1

crizotinib = compound: C[C@@H](Oc1cc(-c2cnn(C3CCNCC3)c2)cnc1N)c1c(Cl)ccc(F)c1Cl [crizotinib]
Outline: as §1

[1] = compound: C[C@H](C1=CC=C(C=C1)C(=O)NC2=C3C=CNC3=NC=C2)N
Outline: as §1

duvelisib = compound: C[C@H](Nc1ncnc2nc[nH]c12)c1cc2cccc(Cl)c2c(=O)n1-c1ccccc1 [duvelisib]
Outline: as §1

gandotinib = compound: Cc1cc(Nc2cc(CN3CCOCC3)c3nc(C)c(Cc4ccc(Cl)cc4F)n3n2)n[nH]1 [gandotinib]
Outline: as §1

tozasertib = compound: Cc1cc(Nc2cc(N3CCN(C)CC3)nc(Sc3ccc(NC(=O)C4CC4)cc3)n2)n[nH]1 [tozasertib]
Outline: as §1

doramapimod = compound: Cc1ccc(-n2nc(C(C)(C)C)cc2NC(=O)Nc2ccc(OCCN3CCOCC3)c3ccccc23)cc1 [doramapimod]
Outline: as §1

bafetinib = compound: Cc1ccc(NC(=O)c2ccc(CN3CC[C@H](N(C)C)C3)c(C(F)(F)F)c2)cc1Nc1nccc(-c2cncnc2)n1 [bafetinib]
Outline: as §1

[2] = compound: Cc1cccc(CC(=O)N2CCc3c2ccc(-c2cn(C)c4ncnc(N)c24)c3F)n1
Outline: as §1

Target	log2 fold change (lapatinib)	log2 fold change (pictilisib)	log2 fold change (crizotinib)	log2 fold change [1]	log2 fold change (duvelisib)	log2 fold change (gandotinib)	log2 fold change (tozasertib)	log2 fold change (doramapimod)	log2 fold change (bafetinib)	log2 fold change [2]
GMNN (UniProt O75496)	inactive: -0.033	inactive: -0.056	inactive: 0.016	inactive: -0.033	inactive: 0.008	inactive: 0.044	inactive: 0.021	inactive: -0.014	inactive: -0.004	inactive: -0.028
GINS3 (UniProt Q9BRX5)	inactive: 0.011	inactive: 0.005	inactive: 0.018	inactive: 0.024	inactive: -0.058	inactive: -0.021	inactive: 0.07	inactive: -0.026	inactive: -0.027	inactive: -0.026
GPAT3 (UniProt Q53EU6)	inactive: -0.032	inactive: 0	inactive: 0.016	inactive: -0.166	inactive: 0.059	inactive: 0.026	inactive: 0.004	inactive: -0.009	inactive: -0.162	inactive: 0.073
GNPDA2 (UniProt Q8TDQ7)	inactive: 0.003	inactive: -0.051	inactive: 0.024	inactive: 0.009	inactive: 0.031	inactive: -0.023	inactive: 0.035	inactive: -0.012	inactive: 0.106	inactive: -0.008
GLRX5 (UniProt Q86SX6)	inactive: 0.123	inactive: -0.05	inactive: 0.014	inactive: 0.186	inactive: 0.027	inactive: -0.071	inactive: 0.034	inactive: 0	inactive: -0.024	inactive: -0.008
GOLGA6B (UniProt A6NDN3)	inactive: -0.105	inactive: -0.061	inactive: -0.193	inactive: -0.105	inactive: 0.121	inactive: 0.109	inactive: 0.027	inactive: -0.381	inactive: -0.04	inactive: 0
GM2A (UniProt P17900)	inactive: 0.085	inactive: 0.204	inactive: 0.047	inactive: 0.068	inactive: -0.027	inactive: 0.421	inactive: 0.082	inactive: -0.03	inactive: 0.057	inactive: -0.059
GMEB2 (UniProt Q9UKD1)	inactive: 0.089	inactive: 0.021	inactive: -0.01	inactive: 0.006	inactive: 0.116	inactive: -0.026	inactive: 0.004	inactive: -0.008	inactive: 0.014	inactive: -0.015
GOSR2 isoform 2 (UniProt O14653)	inactive: -0.062	inactive: -0.101	inactive: 0.04	inactive: 0.047	inactive: 0.002	inactive: -0.085	inactive: -0.009	inactive: -0.042	inactive: -0.066	inactive: 0.053
GPALPP1 (UniProt Q8IXQ4)	inactive: 0.005	inactive: -0.012	inactive: 0.008	inactive: 0.02	inactive: 0.03	inactive: 0.025	inactive: -0.028	inactive: -0.033	inactive: -0.044	inactive: -0.01
GIT2 (UniProt Q14161)	inactive: -0.006	inactive: 0.025	inactive: 0.017	inactive: -0.017	inactive: 0.029	inactive: -0.037	inactive: 0.069	inactive: 0.018	inactive: -0.06	inactive: 0.048
GLUD2 (UniProt P49448)	inactive: -0.009	inactive: 0.144	inactive: -0.097	inactive: -0.004	inactive: 0.001	inactive: 0.099	inactive: 0.03	inactive: -0.028	inactive: 0.049	inactive: 0.024
GPR107 isoform 2 (UniProt Q5VW38)	inactive: -0.005	inactive: -0.032	inactive: -0.022	inactive: -0.066	inactive: -0.045	inactive: 0.071	inactive: -0.037	inactive: 0.007	inactive: -0.054	inactive: 0.025
GIGYF1 (UniProt O75420)	inactive: 0.049	inactive: -0.039	inactive: 0.019	inactive: -0.084	inactive: -0.026	inactive: 0.063	inactive: -0.043	inactive: 0.007	inactive: 0	inactive: 0.121
GNL3 (UniProt Q9BVP2)	inactive: -0.058	inactive: -0.018	inactive: -0.134	inactive: 0.097	inactive: 0.004	inactive: -0.115	inactive: -0.013	inactive: 0.039	inactive: -0.128	inactive: -0.031
GOLGA3 (UniProt Q08378)	inactive: -0.006	inactive: -0.02	inactive: 0.008	inactive: 0.004	inactive: 0.027	inactive: 0.013	inactive: 0.002	inactive: -0.013	inactive: -0.008	inactive: -0.021
GIT1 (UniProt Q9Y2X7)	inactive: 0.029	inactive: -0.007	inactive: -0.015	inactive: 0.009	inactive: -0.08	inactive: -0.076	inactive: -0.002	inactive: -0.004	inactive: -0.047	inactive: -0.007
GOLT1B (UniProt Q9Y3E0)	inactive: -0.007	inactive: 0.004	inactive: -0.015	inactive: -0.02	inactive: 0.021	inactive: 0.039	inactive: -0.006	inactive: -0.029	inactive: 0.062	inactive: 0.009
GPS1 isoform 6 (UniProt Q13098)	inactive: -0.007	inactive: -0.004	inactive: 0.018	inactive: -0.087	inactive: -0.004	inactive: 0.019	inactive: 0.015	inactive: -0.05	inactive: -0.003	inactive: 0.014
GLO1 (UniProt Q04760)	inactive: 0.007	inactive: -0.007	inactive: -0.014	inactive: -0.066	inactive: 0.027	inactive: 0.032	inactive: 0.007	inactive: 0.04	inactive: 0.034	inactive: 0.002
GNAI3 (UniProt P08754)	inactive: 0.014	inactive: 0.032	inactive: 0.007	inactive: -0.032	inactive: -0.048	inactive: 0.004	inactive: 0.026	inactive: 0.019	inactive: 0.051	inactive: 0.007
GPR108 (UniProt Q9NPR9)	inactive: 0.022	inactive: 0.03	inactive: -0.01	inactive: -0.121	inactive: -0.043	active: 0.237	inactive: 0.024	inactive: 0.04	inactive: 0.044	inactive: -0.043
GPN1 isoform 5 (UniProt Q9HCN4)	inactive: 0.004	inactive: -0.007	inactive: -0.002	inactive: -0.072	inactive: 0.023	inactive: 0.038	inactive: -0.002	inactive: -0.019	inactive: 0.027	inactive: 0.022
GGT1 (UniProt P19440)	inactive: 0.028	inactive: -0.024	inactive: 0.118	inactive: -0.08	inactive: 0.02	inactive: 0.03	inactive: 0.034	inactive: 0.026	inactive: 0.025	inactive: 0.01
GLA (UniProt P06280)	inactive: -0.006	inactive: 0.037	inactive: -0.012	inactive: 0.061	inactive: 0.011	inactive: 0.014	inactive: 0.015	inactive: -0.032	inactive: -0.018	inactive: -0.018
GMPS (UniProt P49915)	inactive: -0.008	inactive: -0.014	inactive: 0.007	inactive: 0.115	inactive: 0.006	inactive: -0.071	inactive: -0.001	inactive: -0.036	inactive: -0.012	inactive: -0.032
GOLGA5 (UniProt Q8TBA6)	inactive: 0.022	inactive: -0.047	inactive: -0.015	inactive: -0.039	inactive: 0.002	inactive: -0.061	inactive: 0.009	inactive: 0.025	inactive: -0.025	inactive: 0.002

Single values from the results shown:
Value for GM2A (UniProt P17900) under log2 fold change (doramapimod): inactive: -0.03
Value for GPN1 isoform 5 (UniProt Q9HCN4) under log2 fold change (gandotinib): inactive: 0.038
